In this assay the target is mouse Mac-1 (αMβ2, CD11b/CD18) on mouse monocytes (mouse (endogenous in RAW 264.7 cells and mouse monocytes)) (UniProt P05555+P11835). Briefly: flow cytometry on cells; monocytes isolated from C57BL/6N mice, stimulated with PMA (10 ng/ml), stained with F7, control DARPin (5 µg/ml) or PBS, then incubated with rICAM (15 min, RT); FITC anti-ICAM-1 antibody; only the binder purified.

By UniProt entry, the sequences of proteins in these tests, tags left out. Where a name states a change or a piece, a line headed by the entry shows the natural chain unless it says otherwise. Residues count along the entry.
UniProt P05555: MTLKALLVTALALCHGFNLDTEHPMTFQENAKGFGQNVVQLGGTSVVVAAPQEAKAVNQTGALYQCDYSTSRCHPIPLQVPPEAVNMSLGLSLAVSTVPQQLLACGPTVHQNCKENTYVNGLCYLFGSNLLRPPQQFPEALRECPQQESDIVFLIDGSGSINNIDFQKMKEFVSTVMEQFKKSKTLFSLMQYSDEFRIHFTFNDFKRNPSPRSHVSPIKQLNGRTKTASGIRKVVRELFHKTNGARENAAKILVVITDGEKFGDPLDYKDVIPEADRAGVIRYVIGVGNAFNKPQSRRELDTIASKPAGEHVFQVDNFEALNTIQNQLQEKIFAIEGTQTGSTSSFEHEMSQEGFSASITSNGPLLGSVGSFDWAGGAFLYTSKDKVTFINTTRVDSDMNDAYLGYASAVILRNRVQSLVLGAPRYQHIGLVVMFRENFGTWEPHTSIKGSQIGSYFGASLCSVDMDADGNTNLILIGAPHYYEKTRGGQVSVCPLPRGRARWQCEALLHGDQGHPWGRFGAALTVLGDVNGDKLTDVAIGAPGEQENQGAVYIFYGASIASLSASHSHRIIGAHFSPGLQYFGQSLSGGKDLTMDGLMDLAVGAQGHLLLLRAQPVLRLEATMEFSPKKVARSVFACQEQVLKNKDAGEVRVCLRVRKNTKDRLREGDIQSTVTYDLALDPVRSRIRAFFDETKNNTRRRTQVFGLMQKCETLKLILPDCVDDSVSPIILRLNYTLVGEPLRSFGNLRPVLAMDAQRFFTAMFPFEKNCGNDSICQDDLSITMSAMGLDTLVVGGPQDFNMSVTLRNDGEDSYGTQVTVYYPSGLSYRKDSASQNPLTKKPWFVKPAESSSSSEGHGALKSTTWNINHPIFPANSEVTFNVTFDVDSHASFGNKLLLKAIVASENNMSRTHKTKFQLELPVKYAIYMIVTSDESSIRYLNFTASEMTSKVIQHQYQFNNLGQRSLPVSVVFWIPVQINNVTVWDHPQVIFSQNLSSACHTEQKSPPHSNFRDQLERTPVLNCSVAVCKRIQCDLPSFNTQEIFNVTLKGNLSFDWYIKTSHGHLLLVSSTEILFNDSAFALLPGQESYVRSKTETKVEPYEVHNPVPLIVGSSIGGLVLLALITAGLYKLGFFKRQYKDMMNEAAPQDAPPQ
UniProt P11835: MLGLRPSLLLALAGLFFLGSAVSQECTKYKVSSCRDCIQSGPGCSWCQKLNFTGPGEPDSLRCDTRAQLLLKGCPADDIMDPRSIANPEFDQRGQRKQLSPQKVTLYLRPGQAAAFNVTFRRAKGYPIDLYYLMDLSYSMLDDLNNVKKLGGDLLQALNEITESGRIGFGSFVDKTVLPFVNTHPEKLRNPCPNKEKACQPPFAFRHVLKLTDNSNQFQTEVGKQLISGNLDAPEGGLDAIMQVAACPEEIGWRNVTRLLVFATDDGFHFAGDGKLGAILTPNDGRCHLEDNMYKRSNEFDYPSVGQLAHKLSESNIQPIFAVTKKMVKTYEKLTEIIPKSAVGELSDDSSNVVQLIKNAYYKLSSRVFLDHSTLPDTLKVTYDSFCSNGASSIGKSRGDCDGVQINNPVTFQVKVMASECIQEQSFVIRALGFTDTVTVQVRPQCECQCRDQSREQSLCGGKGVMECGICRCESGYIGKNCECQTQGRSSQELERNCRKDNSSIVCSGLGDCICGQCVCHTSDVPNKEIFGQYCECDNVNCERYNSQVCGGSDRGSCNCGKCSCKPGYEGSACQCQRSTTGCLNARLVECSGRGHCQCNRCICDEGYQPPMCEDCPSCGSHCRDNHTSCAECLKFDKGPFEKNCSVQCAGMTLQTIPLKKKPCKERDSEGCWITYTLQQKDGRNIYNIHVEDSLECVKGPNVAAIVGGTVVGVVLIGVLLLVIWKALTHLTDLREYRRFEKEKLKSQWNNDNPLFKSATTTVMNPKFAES
UniProt P13597, residues 28-485: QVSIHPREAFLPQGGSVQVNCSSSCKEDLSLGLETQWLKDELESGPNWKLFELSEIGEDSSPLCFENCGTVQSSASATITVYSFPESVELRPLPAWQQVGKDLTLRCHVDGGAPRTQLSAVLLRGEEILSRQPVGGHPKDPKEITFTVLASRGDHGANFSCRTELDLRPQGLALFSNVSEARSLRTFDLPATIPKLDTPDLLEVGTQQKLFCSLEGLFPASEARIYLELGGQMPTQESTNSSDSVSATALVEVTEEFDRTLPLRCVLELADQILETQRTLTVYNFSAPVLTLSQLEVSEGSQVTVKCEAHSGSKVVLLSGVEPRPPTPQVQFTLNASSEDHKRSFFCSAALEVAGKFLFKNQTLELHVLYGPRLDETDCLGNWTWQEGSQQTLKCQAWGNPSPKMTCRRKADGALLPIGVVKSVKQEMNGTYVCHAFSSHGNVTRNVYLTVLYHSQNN

No constants are given. Whether binding was seen depends on the method and setting. Some entries that bind do so weakly or less than the wild type.

In the case of “recombinant ICAM-1 (rICAM; Biolegend) (from UniProt P13597 28-485) (ligand)”, the binding entry is given as “binds”.

These data come from article PMC7960600, “A DARPin targeting activated Mac-1 is a novel diagnostic tool and potential anti-inflammatory agent in myocarditis, sepsis and myocardial infarction” (Basic Research in Cardiology, 2021).
